In the supplement of paper PMC10849652:
This is one part of the list.

Sequences of proteins named here, by UniProt entry; tags and fusion partners are left off. A change or cut given only in a name is not applied to a line headed by its entry.
UniProt O94966: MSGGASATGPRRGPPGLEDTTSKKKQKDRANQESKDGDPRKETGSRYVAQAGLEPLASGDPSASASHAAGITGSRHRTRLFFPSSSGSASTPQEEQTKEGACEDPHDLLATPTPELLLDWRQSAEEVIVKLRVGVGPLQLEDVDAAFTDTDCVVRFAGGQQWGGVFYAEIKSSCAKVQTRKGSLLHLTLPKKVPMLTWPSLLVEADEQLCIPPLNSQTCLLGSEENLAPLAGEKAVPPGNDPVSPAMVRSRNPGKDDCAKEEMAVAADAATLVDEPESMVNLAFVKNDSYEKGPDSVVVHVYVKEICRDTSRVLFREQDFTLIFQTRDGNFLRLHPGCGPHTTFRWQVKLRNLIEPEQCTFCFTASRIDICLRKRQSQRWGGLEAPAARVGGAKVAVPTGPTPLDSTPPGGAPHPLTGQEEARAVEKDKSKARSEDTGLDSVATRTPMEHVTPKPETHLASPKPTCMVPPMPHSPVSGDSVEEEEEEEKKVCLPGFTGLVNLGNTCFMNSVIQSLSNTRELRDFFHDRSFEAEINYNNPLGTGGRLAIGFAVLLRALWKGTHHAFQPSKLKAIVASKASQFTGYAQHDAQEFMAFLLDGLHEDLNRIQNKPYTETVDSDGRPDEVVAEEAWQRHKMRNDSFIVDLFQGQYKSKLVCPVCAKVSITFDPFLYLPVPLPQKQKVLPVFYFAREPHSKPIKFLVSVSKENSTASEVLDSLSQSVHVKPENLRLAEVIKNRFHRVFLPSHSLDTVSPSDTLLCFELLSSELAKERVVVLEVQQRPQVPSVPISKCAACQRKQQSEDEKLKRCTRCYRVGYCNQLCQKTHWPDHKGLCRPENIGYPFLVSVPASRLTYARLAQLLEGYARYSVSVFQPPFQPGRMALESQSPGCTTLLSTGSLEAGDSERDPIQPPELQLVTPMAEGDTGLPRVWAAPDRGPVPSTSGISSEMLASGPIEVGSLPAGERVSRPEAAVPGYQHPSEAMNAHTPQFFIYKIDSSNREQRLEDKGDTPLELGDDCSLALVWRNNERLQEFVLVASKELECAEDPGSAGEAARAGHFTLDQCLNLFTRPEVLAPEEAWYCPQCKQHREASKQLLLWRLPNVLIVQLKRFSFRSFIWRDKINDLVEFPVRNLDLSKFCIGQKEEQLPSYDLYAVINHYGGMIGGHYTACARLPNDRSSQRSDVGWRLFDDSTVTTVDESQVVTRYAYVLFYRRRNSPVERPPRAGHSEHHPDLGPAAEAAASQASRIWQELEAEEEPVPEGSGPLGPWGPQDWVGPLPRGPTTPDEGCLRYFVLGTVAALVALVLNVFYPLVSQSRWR
UniProt Q99536: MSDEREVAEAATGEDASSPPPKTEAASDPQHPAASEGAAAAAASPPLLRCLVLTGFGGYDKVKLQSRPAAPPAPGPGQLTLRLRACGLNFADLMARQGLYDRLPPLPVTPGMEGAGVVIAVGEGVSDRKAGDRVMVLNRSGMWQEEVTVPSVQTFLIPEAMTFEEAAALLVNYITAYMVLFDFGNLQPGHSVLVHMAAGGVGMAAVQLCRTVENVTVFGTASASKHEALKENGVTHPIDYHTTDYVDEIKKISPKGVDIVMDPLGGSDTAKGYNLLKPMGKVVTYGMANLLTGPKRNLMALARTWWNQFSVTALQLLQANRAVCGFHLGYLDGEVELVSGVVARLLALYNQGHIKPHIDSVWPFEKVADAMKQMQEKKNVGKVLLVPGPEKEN
UniProt O94763, whole entry, looked up: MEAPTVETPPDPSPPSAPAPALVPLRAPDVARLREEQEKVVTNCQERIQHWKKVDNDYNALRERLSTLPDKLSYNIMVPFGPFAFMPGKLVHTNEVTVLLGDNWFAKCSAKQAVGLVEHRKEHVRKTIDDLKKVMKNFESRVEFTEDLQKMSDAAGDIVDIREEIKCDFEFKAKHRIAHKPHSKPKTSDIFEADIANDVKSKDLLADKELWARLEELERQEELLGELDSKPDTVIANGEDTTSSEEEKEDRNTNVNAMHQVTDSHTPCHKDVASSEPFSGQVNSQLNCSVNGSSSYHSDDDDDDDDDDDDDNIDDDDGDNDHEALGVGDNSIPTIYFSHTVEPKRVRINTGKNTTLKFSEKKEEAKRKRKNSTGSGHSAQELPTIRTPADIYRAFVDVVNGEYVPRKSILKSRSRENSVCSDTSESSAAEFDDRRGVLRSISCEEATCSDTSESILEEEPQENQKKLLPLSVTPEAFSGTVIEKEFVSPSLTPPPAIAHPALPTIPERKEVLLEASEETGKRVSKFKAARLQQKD
UniProt O14949: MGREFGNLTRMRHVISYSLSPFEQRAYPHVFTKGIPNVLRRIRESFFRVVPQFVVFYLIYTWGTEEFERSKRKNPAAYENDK
UniProt P26640: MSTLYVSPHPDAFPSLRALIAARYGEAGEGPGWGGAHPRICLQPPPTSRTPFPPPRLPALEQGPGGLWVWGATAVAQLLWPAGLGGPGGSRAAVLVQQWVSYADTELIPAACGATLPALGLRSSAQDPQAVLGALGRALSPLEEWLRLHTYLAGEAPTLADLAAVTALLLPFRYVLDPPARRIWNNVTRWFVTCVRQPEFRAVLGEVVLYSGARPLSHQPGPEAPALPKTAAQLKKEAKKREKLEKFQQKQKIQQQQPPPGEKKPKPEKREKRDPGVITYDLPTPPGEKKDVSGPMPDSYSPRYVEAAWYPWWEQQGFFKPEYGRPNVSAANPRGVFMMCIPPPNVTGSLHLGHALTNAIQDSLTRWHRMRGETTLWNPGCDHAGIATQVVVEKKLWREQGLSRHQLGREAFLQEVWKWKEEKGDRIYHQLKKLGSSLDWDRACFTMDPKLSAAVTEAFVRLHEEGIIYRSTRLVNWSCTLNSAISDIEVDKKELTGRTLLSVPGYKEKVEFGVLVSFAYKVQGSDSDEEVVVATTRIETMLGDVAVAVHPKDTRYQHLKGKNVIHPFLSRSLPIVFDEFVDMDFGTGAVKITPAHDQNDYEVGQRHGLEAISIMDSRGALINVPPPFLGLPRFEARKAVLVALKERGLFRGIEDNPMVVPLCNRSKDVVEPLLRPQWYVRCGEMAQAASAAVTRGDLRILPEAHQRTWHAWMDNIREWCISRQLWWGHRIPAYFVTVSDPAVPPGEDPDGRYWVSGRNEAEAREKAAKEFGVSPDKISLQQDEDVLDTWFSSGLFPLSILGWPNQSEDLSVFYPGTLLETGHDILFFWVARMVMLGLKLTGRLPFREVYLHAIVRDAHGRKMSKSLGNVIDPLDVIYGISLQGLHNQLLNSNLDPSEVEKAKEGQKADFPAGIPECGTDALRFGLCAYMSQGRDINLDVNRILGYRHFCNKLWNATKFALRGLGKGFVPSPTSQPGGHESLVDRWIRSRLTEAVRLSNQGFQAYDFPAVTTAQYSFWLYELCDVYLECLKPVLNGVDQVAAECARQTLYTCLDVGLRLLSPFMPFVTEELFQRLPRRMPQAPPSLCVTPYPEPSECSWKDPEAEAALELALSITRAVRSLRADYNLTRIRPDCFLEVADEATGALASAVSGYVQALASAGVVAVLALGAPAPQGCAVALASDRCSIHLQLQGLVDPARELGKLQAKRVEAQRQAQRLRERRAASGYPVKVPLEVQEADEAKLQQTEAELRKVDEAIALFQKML
UniProt Q9BZL1: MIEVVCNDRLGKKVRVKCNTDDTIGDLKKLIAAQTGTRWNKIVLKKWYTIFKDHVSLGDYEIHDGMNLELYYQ
UniProt P45974: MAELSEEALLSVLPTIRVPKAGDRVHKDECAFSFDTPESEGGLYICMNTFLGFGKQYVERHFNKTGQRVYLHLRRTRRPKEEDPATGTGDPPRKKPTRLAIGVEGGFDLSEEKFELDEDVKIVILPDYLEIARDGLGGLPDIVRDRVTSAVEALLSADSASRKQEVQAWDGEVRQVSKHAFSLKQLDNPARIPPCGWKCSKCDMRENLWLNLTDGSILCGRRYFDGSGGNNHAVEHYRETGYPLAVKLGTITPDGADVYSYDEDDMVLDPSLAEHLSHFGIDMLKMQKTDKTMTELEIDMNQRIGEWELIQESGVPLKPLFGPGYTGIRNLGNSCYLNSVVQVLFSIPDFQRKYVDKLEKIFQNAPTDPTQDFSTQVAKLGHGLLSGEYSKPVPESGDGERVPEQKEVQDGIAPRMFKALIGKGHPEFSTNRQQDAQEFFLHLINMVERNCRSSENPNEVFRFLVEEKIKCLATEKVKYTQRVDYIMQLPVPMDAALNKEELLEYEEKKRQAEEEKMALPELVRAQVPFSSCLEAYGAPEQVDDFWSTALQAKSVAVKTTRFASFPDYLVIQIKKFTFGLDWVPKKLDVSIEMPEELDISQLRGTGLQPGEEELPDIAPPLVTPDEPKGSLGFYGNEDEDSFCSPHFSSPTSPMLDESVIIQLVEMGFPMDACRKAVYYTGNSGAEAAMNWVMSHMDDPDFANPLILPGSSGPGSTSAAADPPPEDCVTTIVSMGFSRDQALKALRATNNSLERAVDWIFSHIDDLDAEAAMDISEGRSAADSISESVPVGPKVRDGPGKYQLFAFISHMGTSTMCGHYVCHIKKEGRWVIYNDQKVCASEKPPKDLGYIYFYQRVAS
UniProt P18206: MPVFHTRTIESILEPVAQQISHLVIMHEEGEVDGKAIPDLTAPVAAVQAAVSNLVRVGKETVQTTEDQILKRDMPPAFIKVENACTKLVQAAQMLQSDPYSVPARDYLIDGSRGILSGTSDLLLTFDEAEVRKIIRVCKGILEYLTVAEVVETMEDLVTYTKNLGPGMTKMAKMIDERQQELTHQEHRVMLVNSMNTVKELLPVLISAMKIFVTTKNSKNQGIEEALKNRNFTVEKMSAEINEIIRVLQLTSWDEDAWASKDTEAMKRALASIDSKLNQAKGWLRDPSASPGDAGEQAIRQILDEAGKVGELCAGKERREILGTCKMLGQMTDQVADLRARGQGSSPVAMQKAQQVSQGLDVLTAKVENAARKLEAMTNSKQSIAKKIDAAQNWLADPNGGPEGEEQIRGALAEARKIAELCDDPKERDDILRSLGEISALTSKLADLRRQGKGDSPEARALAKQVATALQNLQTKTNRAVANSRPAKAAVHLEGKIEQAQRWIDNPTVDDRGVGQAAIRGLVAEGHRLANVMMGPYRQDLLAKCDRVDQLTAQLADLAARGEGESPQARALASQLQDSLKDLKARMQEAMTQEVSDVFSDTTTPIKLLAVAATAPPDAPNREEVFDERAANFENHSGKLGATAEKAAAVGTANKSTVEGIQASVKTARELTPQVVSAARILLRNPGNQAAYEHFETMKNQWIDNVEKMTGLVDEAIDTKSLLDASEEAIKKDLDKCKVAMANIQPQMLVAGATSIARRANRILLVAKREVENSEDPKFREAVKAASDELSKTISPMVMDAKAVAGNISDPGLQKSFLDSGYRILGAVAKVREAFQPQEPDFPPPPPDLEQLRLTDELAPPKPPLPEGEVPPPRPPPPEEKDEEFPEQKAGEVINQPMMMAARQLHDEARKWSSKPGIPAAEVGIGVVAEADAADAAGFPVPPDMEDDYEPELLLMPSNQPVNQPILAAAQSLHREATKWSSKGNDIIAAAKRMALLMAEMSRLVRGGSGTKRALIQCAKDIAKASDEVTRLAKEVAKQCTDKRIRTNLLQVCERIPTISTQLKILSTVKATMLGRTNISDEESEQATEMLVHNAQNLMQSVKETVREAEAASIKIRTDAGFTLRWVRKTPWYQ
UniProt Q16739: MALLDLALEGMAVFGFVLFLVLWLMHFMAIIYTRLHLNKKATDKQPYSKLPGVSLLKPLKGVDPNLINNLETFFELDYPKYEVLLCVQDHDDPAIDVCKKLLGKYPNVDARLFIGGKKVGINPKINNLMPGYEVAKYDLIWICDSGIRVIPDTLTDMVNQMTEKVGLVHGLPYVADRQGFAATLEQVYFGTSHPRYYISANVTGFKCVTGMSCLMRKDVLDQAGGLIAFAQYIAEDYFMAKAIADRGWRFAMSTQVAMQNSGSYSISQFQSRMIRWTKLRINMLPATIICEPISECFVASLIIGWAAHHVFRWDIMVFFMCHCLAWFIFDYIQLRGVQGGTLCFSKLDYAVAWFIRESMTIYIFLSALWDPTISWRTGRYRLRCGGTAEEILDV
UniProt O94888: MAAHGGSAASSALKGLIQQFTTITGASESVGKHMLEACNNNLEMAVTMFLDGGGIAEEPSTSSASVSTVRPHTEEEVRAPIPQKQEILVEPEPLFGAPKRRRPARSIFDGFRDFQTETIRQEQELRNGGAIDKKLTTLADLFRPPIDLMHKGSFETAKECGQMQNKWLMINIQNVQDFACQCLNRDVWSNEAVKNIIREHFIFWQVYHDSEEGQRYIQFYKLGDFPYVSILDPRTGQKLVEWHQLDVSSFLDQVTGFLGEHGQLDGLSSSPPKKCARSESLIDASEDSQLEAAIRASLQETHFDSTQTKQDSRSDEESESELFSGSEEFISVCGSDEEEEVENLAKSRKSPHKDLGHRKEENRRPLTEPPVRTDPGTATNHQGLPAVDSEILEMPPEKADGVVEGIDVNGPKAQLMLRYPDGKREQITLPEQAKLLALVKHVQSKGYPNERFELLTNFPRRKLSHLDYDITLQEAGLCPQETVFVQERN

Each target was assayed with c1cn2cc(-c3ccc4cn[nH]c4c3)nc(Nc3ccc(N4CCOCC4)cc3)c2n1 [entospletinib] (assay: log2 fold change, soluble protein after heating vs DMSO (PISA); higher = thermal stabilisation; K562 cells, 10 uM, 30 min; active = over 0.2 and 3.5 SD of the protein, either way, in both replicates (recomputed)).
Outline: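 For each measurement, 10 μM compound was applied for 30 min to K562 cells at 2×10^6 cells/mL. Aliquots were heated for 3 min across 48°C-58°C, pooled, and extracted in PBS with 0.5% NP-40 at 4°C; the supernatant after 21,000xg for 90 min was soluble protein. This was quantified by TMTpro 16plex LC-MS/MS with channel sums equalised, and thermal stability was reported relative to control samples from duplicates, on a log2 fold-change scale.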

log2 fold change, inactive:
UBXN1 (UniProt Q04323) -0.013
UNC13D isoform 3 (UniProt Q70J99) 0.15
USP19 isoform 6 (UniProt O94966) -0.025
VAT1 (UniProt Q99536) -0.006
URI1 isoform 4 (UniProt O94763) 0.064
UQCRQ (UniProt O14949) 0.003
UPRT (UniProt Q96BW1) 0.031
VARS (UniProt P26640) 0.022
UBL5 (UniProt Q9BZL1) 0.089
VAPB (UniProt O95292) -0.046
UNC45A (UniProt Q9H3U1) 0.058
ULK3 isoform 4 (UniProt Q6PHR2) -0.171
USP5 (UniProt P45974) -0.038
VCL (UniProt P18206) -0.036
UBR7 (UniProt Q8N806) -0.015
UGCG (UniProt Q16739) -0.094
VCP (UniProt P55072) -0.001
VANGL1 (UniProt Q8TAA9) 0.107
UBXN7 (UniProt O94888) 0.014
UBQLN3 (UniProt Q9H347) 0.291
VAMP4 (UniProt O75379) 0.023
UBL4A (UniProt P11441) 0.047
UROS (UniProt P10746) 0.05

2 records drawn at random from those above, as already listed:
log2 fold change, inactive:
VAMP4 (UniProt O75379) 0.023
UBXN1 (UniProt Q04323) -0.013
